Results are given in words; binding and its absence hold for the method and conditions named. Some results given as binding are weak or reduced against the parent protein; the word gives no strength.
Experiments:
[1] = molecular target: T1, AITR on AITR-overexpressed Jurkat cells (CD5L-AITR-TM-ECD) (human) (UniProt Q9Y5U5); assay: flow cytometry, PE-conjugated mAb on AITR-overexpressed Jurkat cells (FIG. 1B)
T1 sequence (looked up): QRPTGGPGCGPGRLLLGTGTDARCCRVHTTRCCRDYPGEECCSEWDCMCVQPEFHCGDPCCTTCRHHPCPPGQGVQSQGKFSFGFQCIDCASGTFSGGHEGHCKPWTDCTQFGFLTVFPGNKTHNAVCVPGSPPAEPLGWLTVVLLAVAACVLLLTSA

[2] = molecular target: activation-inducible tumor necrosis factor receptor (AITR) on human T cells (human) (UniProt Q9Y5U5); assay: flow cytometry on stimulated PBMC subsets
[3] = molecular target: T1, AITR on AITR-overexpressed Jurkat cells (CD5L-AITR-TM-ECD) (human); assay: flow cytometry on AITR-overexpressed Jurkat cells
[4] = molecular target: activation-inducible tumor necrosis factor receptor (AITR) on human T cells (human) (UniProt Q9Y5U5); assay: flow cytometry on anti-CD3/IL-2-activated CD4+ T cells (FIG. 1D)

Measured: binding

B1: anti-AITR mAb B62 (antibody, V domains shown)
VH: EVQLVQSGGGLVQPGGSLRLSCSASGFSFSSYAMHWVRQAPGKGLEYVSGISDNGGSTKYADSVKGRFTISRDNSQNTLYLQMSSLRSEDTAVYYCARGGPTYYDFWSGYYTDEDAFDIWGQGTLVTVSS
VL: EIVMTQSPSSLSASVGDRVTITCRASQSINNYLNWYQQKPGKAPKLLIYATSRLQSGVPSRFSGSGSGADLTLTISSLQPEDVATYYCQQSYSFPWTFGQGTKVEIK
binds: [1] | [2] | [3] | [4]

From US20180170997A1 (NATIONAL CANCER CENTER, published 2018)
